Assay results: the supplement of paper PMC8728848
Some of the results follow.

What was measured:
Test in all cases: glycan array binding signal (z-score within array); higher = stronger binding
Conditions in all cases: glycan notation: IUPAC condensed, linker removed
[1] = biological target: Gal(b1-4)GlcNAc(b1-3)Gal(b1-4)GlcNAc(b1-2)[Gal(b1-4)GlcNAc(b1-3)Gal(b1-4)GlcNAc(b1-6)]Man(a1-6)[Gal(b1-4)GlcNAc(b1-3)Gal(b1-4)GlcNAc(b1-2)Man(a1-3)]Man(b1-4)GlcNAc(b1-4)[Fuc(a1-6)]GlcNAc
Outline: (§1)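 Arrays were curated from the Consortium for Functional Glycomics database, 3228 in total, and kept only where the protein sequence was available. Binding is expressed as a within-array Z-score. This score was averaged across arrays of the same protein sequence at different concentrations or buffers and across linkers, and negative values can be read as non-binding.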

[2] = biological target: Gal(b1-4)GlcNAc(b1-3)Gal(b1-4)GlcNAc(b1-3)Gal(b1-4)GlcNAc
Outline: as §1

[3] = biological target: Gal(b1-4)GlcNAc(b1-3)Gal(b1-4)GlcNAc(b1-3)Gal(b1-4)GlcNAc(b1-2)Man(a1-3)[Gal(b1-4)GlcNAc(b1-3)Gal(b1-4)GlcNAc(b1-3)Gal(b1-4)GlcNAc(b1-2)Man(a1-6)]Man(b1-4)GlcNAc(b1-4)GlcNAc
Outline: as §1

[4] = biological target: Gal(b1-4)GlcNAc(b1-3)Gal(b1-4)GlcNAc(b1-3)Gal(b1-4)GlcNAc(b1-2)Man(a1-3)[Gal(b1-4)GlcNAc(b1-3)Gal(b1-4)GlcNAc(b1-3)Gal(b1-4)GlcNAc(b1-2)Man(a1-6)]Man(b1-4)GlcNAc(b1-4)[Fuc(a1-6)]GlcNAc
Outline: as §1

[5] = biological target: Gal(b1-4)GlcNAc(b1-3)Gal(b1-4)GlcNAc(b1-3)Gal(b1-4)GlcNAc(b1-2)[Gal(b1-4)GlcNAc(b1-3)Gal(b1-4)GlcNAc(b1-3)Gal(b1-4)GlcNAc(b1-6)]Man(a1-6)[Gal(b1-4)GlcNAc(b1-3)Gal(b1-4)GlcNAc(b1-3)Gal(b1-4)GlcNAc(b1-2)Man(a1-3)]Man(b1-4)GlcNAc(b1-4)[Fuc(a1-6)]GlcNAc
Outline: as §1

[6] = biological target: Gal(b1-4)GlcNAc(b1-3)Gal(b1-4)GlcNAc(b1-3)Gal(b1-4)GlcNAc(b1-3)Gal(b1-4)GlcNAc(b1-2)Man(a1-3)[Gal(b1-4)GlcNAc(b1-3)Gal(b1-4)GlcNAc(b1-3)Gal(b1-4)GlcNAc(b1-3)Gal(b1-4)GlcNAc(b1-2)Man(a1-6)]Man(b1-4)GlcNAc(b1-4)GlcNAc
Outline: as §1

[7] = biological target: Gal(b1-4)GlcNAc(b1-3)Gal(b1-4)GlcNAc(b1-3)Gal(b1-4)GlcNAc(b1-3)Gal(b1-4)GlcNAc(b1-2)Man(a1-3)[Gal(b1-4)GlcNAc(b1-3)Gal(b1-4)GlcNAc(b1-3)Gal(b1-4)GlcNAc(b1-3)Gal(b1-4)GlcNAc(b1-2)Man(a1-6)]Man(b1-4)GlcNAc(b1-4)[Fuc(a1-6)]GlcNAc
Outline: as §1

[8] = biological target: Gal(b1-4)GlcNAc(b1-3)Gal(b1-4)GlcNAc(b1-3)Gal(b1-4)GlcNAc(b1-3)Gal(b1-4)GlcNAc(b1-2)[Gal(b1-4)GlcNAc(b1-3)Gal(b1-4)GlcNAc(b1-3)Gal(b1-4)GlcNAc(b1-3)Gal(b1-4)GlcNAc(b1-6)]Man(a1-6)[Gal(b1-4)GlcNAc(b1-3)Gal(b1-4)GlcNAc(b1-3)Gal(b1-4)GlcNAc(b1-3)Gal(b1-4)GlcNAc(b1-2)Man(a1-3)]Man(b1-4)GlcNAc(b1-4)[Fuc(a1-6)]GlcNAc
Outline: as §1

[9] = biological target: Gal(b1-4)GlcNAc(b1-3)Gal(b1-4)GlcNAc(b1-3)Gal(b1-4)GlcNAc(b1-3)Gal(b1-4)GlcNAc(b1-3)Gal(b1-4)GlcNAc(b1-2)Man(a1-3)[Gal(b1-4)GlcNAc(b1-3)Gal(b1-4)GlcNAc(b1-3)Gal(b1-4)GlcNAc(b1-3)Gal(b1-4)GlcNAc(b1-3)Gal(b1-4)GlcNAc(b1-2)Man(a1-6)]Man(b1-4)GlcNAc(b1-4)GlcNAc
Outline: as §1

[10] = biological target: Gal(b1-4)GlcNAc(b1-3)Gal(b1-4)GlcNAc(b1-3)Gal(b1-4)GlcNAc(b1-3)Gal(b1-4)GlcNAc(b1-3)Gal(b1-4)GlcNAc(b1-2)Man(a1-3)[Gal(b1-4)GlcNAc(b1-3)Gal(b1-4)GlcNAc(b1-3)Gal(b1-4)GlcNAc(b1-3)Gal(b1-4)GlcNAc(b1-3)Gal(b1-4)GlcNAc(b1-2)Man(a1-6)]Man(b1-4)GlcNAc(b1-4)[Fuc(a1-6)]GlcNAc
Outline: as §1

[11] = biological target: Gal(b1-4)GlcNAc(b1-3)Gal(b1-4)GlcNAc(b1-3)Gal(b1-4)GlcNAc(b1-3)Gal(b1-4)GlcNAc(b1-3)Gal(b1-4)GlcNAc(b1-2)[Gal(b1-4)GlcNAc(b1-3)Gal(b1-4)GlcNAc(b1-3)Gal(b1-4)GlcNAc(b1-3)Gal(b1-4)GlcNAc(b1-3)Gal(b1-4)GlcNAc(b1-6)]Man(a1-6)[Gal(b1-4)GlcNAc(b1-3)Gal(b1-4)GlcNAc(b1-3)Gal(b1-4)GlcNAc(b1-3)Gal(b1-4)GlcNAc(b1-3)Gal(b1-4)GlcNAc(b1-2)Man(a1-3)]Man(b1-4)GlcNAc(b1-4)[Fuc(a1-6)]GlcNAc
Outline: as §1

[12] = biological target: Gal(b1-4)GlcNAc(b1-3)Gal(b1-4)GlcNAc(b1-3)Gal(b1-4)GlcNAc(b1-3)Gal(b1-4)GlcNAc(b1-3)Gal(b1-4)GlcNAc(b1-3)Gal(b1-4)GlcNAc(b1-2)Man(a1-3)[Gal(b1-4)GlcNAc(b1-3)Gal(b1-4)GlcNAc(b1-3)Gal(b1-4)GlcNAc(b1-3)Gal(b1-4)GlcNAc(b1-3)Gal(b1-4)GlcNAc(b1-3)Gal(b1-4)GlcNAc(b1-2)Man(a1-6)]Man(b1-4)GlcNAc(b1-4)GlcNAc
Outline: as §1

[13] = biological target: Gal(b1-4)GlcNAc(b1-3)Gal(b1-4)GlcNAc(b1-3)GalNAc
Outline: as §1

[14] = biological target: Gal(b1-4)GlcNAc(b1-3)Gal(b1-4)GlcNAc(b1-3)[Gal(b1-4)GlcNAc(b1-3)Gal(b1-4)GlcNAc(b1-6)]GalNAc
Outline: as §1

[15] = biological target: Gal(b1-4)GlcNAc(b1-3)Gal(b1-4)GlcNAc(b1-6)[Gal(b1-3)]GalNAc
Outline: as §1

[16] = biological target: Gal(b1-4)GlcNAc(b1-3)Gal(b1-4)[Fuc(a1-3)]GlcNAc(b1-3)Gal(b1-4)[Fuc(a1-3)]GlcNAc
Outline: as §1

[17] = biological target: Gal(b1-4)GlcNAc(b1-3)GalNAc
Outline: as §1

[18] = biological target: Gal(b1-4)GlcNAc(b1-3)[Fuc(a1-3)GlcNAc(b1-6)]Gal(b1-4)Glc
Outline: as §1

[19] = biological target: Gal(b1-4)GlcNAc(b1-3)[Gal(b1-4)GlcNAc(b1-6)]Gal(b1-4)GlcNAc
Outline: as §1

[20] = biological target: Gal(b1-4)GlcNAc(b1-3)[GlcNAc(b1-6)]Gal(b1-4)GlcNAc
Outline: as §1

[21] = biological target: Gal(b1-4)GlcNAc(b1-6)Gal(b1-4)GlcNAc
Outline: as §1

[22] = biological target: Gal(b1-4)GlcNAc(b1-6)GalNAc
Outline: as §1

[23] = biological target: Gal(b1-4)GlcNAc(b1-6)[Gal(b1-3)]GalNAc
Outline: as §1

[24] = biological target: Gal(b1-4)GlcNAc(b1-6)[Gal(b1-4)GlcNAc(b1-3)]GalNAc
Outline: as §1

Gal(b1-4)GlcNAc6P = biological target: Gal(b1-4)GlcNAc6P
Outline: as §1

Gal(b1-6)Gal = biological target: Gal(b1-6)Gal
Outline: as §1

Gal3S(b1-3)GalNAc = biological target: Gal3S(b1-3)GalNAc
Outline: as §1

Gal3S(b1-3)GlcNAc = biological target: Gal3S(b1-3)GlcNAc
Outline: as §1

[25] = biological target: Gal3S(b1-3)[Fuc(a1-4)]GlcNAc
Outline: as §1

Gal3S(b1-4)Glc = biological target: Gal3S(b1-4)Glc
Outline: as §1

B1: Blon2355mut (Bifidobacterium longum) (protein)
chain: MVQEPTLEWHVIPEPTNVEPLVGTCSLPLSGTVVEQRGADDAEAVFARQLVDDIKRVCGGRWQVASGEVQREVTLRTSPSLDDWSYVLEVSPDGVVITGSGFEGVRDGVQTLRQIIRQIGLTIPCMVIRDRPAFSTRGYYLDVTRGRVPSMAWLKSWVDRLCFYKYNQFQLYIEHTFQFNGLSEVWRGADPLTSSDILELDSYCAARGIELVPSVSTFGHHYTALRTRQLRDLGEFPEDADRPFSLIERMTHHTLNITDERSYEFSTSLIDELMPLFRSRKFNICANETFDLGKGRSKQESAKRGVGAMYADFVERLCRHVDDRGHDVMVWADVALEHPEIIDTLPKNITWLNWQYEPNVDDGTTAALADAGATQMVCPAVWCWNALIPRIDDAWNNITRMARHGRAHDVSGMLVTDWGDFGHVNDPRMSVPGMIFGAQQSWNPDAELSEVDMLSRISTIEYGDHTGSVVGALRGASAKGGFSWSDLVTYLELDDGRGGCNTEIVRVMGCLEAYRNDLPQSGQARLADARVSMLRTLRDSILAGRELNGKLDDAAKDITQLLRVAGDPSSAAVWSLAIDGQRLLNRVGLALLAAHGVVRQDEAGIDAAKLADELECWTEQYSRLWHEVSRQSELARIQHVVWRAADVLRSI
[1]
  glycan array binding signal (z-score): -1.16
[2]
  glycan array binding signal (z-score): -0.668
[3]
  glycan array binding signal (z-score): -0.132
[4]
  glycan array binding signal (z-score): 0.51
[5]
  glycan array binding signal (z-score): 0.359
[6]
  glycan array binding signal (z-score): -0.132
[7]
  glycan array binding signal (z-score): 0.064
[8]
  glycan array binding signal (z-score): 0.815
[9]
  glycan array binding signal (z-score): 1.84
[10]
  glycan array binding signal (z-score): 1.81
[11]
  glycan array binding signal (z-score): 1.08
[12]
  glycan array binding signal (z-score): -0.457
[13]
  glycan array binding signal (z-score): 1.86
[14]
  glycan array binding signal (z-score): 1.95
[15]
  glycan array binding signal (z-score): 0.259
[16]
  glycan array binding signal (z-score): 0.697
[17]
  glycan array binding signal (z-score): -0.592
[18]
  glycan array binding signal (z-score): 0.724
[19]
  glycan array binding signal (z-score): 0.314
[20]
  glycan array binding signal (z-score): -0.722
[21]
  glycan array binding signal (z-score): -0.724
[22]
  glycan array binding signal (z-score): 0.284
[23]
  glycan array binding signal (z-score): 0.075
[24]
  glycan array binding signal (z-score): -0.034
Gal(b1-4)GlcNAc6P
  glycan array binding signal (z-score): 0.435
Gal(b1-6)Gal
  glycan array binding signal (z-score): -0.785
Gal3S(b1-3)GalNAc
  glycan array binding signal (z-score): -0.232
Gal3S(b1-3)GlcNAc
  glycan array binding signal (z-score): 0.551
[25]
  glycan array binding signal (z-score): 0.1
Gal3S(b1-4)Glc
  glycan array binding signal (z-score): 2.74
